Measurements taken from patent publication US20190023782A1 (SHANGHAI JUNSHI BIOSCIENCES, published 2019).

B1: humanized antibody Clone 38 (antibody, V domains shown)
VH: QGQLVQSGAEVKKPGASVKVSCKASGYTFTDYEMHWVRQAPIHGLEWIGVIESETGGTAYNQKFKGRVTITADKSTSTAYMELSSLRSEDTAVYYCAREGITTVATTYYWYFDVWGQGTTVTVSS
VL: DVVMTQSPLSLPVTLGQPASISCRSSQSIVHSNGNTYLEWYLQKPGQSPQLLIYKVSNRFSGVPDRFSGSGSGTDFTLKISRVEAEDVGVYYCFQGSHVPLTFGQGTKLEIK
B2: humanized antibody Clone 39 (antibody, V domains shown)
VH: B1 VH with I42G, H43Q, I48M, V68A, T69K, A97T
VL: B1 VL
B3: humanized antibody Clone 48 (antibody, V domains shown)
VH: B1 VH with I42G, H43Q, I48M, V68A, T69K, A97T
VL: B1 VL with Q50R
B4: H1L1 (antibody, V domains shown)
VH: QGQLQQSGAELVRPGASVTLTCKASGYTFTDYEMHWVKQTPIHGLEWIGVIESETGGTAYNQKFKGKAKLTADKSSSTAYMELRSLTSEDSAVYYCTREGITTVATTYYWYFDVWGTGTTVTVSS
VL: B1 VL with V3L, S7T, T14S, Q17D, P18Q, Q50E, S57Y, V88L, L101F, Q105S
notes: also called original antibody 1 (heavy chain 1, light chain 1)
B5: H10L10 (antibody, V domains shown)
VH: QVQLQQSGAELVRPGASVTLSCKASGYTFTDYEMHWVKQTPVHGLEWIGAIDPETGGAAYNQKFKGKAILTADKSSSTAYMELRSLTSEDSAVYYCTREGITTSVVTYYWYFDVWGTGTTVTVSS
VL: B1 VL with V3L, S7T, T14S, Q17D, P18Q, Q50K, K79R, A85P, V88L, Q105S
notes: also called original antibody 10 (heavy chain 10, light chain 10)
B6: Clone 11 (antibody, V domains shown)
VH: QVTLKESGPGILQPSQTLSLTCSFSGFSLSTFGMGVGWIRQPSGKGLEWLAHIWWDDDKYYNPALKSRLTISKNTSKNQVFLKIANVDTEDTATYYCARIEERFRWYFDVWGTGTTVTVSS
VL: RAGWTQESALTTSPGETVTLTCRSSTGAITTSNYANWVQEKPDHLFTGLIGGTNNRAPGVPARFSGSLIGDKAALTITGAQTEDEAIYFCALWYSNHWVFGGGTKLTVL
notes: Mouse hybridoma antibody; also called antibody candidate Clone 11

Target: mouse-derived PD-1 (mouse)
Assay: ELISA, PD-1 coated at 1 ug/ml, various antibody concentrations

| Binder | binding |
| --- | --- |
| B1 | no binding |
| B2 | no binding |
| B3 | no binding |

Substrate: ICOS
Assay: ELISA, antigen coated at 1 ug/ml

| Binder | binding |
| --- | --- |
| B4 | no binding (tested: 1 ug/ml) |
| B5 | no binding (tested: 1 ug/ml) |
| B6 | no binding (tested: 1 ug/ml) |

Target: CD28
Assay: ELISA, antigen coated at 1 ug/ml

| Binder | binding |
| --- | --- |
| B4 | no binding (tested: 1 ug/ml) |
| B5 | no binding (tested: 1 ug/ml) |
| B6 | no binding (tested: 1 ug/ml) |

Target: CTLA-4
Assay: ELISA, antigen coated at 1 ug/ml

| Binder | binding |
| --- | --- |
| B4 | no binding (tested: 1 ug/ml) |
| B5 | no binding (tested: 1 ug/ml) |
| B6 | no binding (tested: 1 ug/ml) |

Positions count from the first letter of the chain named. Results are given in words; binding and its absence hold for the method and conditions named.
